Data published in article PMC2686717.
No constants are given. Whether binding was seen depends on the method and setting. In cells and extracts the contact can be indirect. Where a sequence is shown, tags or fusion partners need not be part of it.

By UniProt entry, the sequences of proteins in these tests, tags left out.
UniProt P28159: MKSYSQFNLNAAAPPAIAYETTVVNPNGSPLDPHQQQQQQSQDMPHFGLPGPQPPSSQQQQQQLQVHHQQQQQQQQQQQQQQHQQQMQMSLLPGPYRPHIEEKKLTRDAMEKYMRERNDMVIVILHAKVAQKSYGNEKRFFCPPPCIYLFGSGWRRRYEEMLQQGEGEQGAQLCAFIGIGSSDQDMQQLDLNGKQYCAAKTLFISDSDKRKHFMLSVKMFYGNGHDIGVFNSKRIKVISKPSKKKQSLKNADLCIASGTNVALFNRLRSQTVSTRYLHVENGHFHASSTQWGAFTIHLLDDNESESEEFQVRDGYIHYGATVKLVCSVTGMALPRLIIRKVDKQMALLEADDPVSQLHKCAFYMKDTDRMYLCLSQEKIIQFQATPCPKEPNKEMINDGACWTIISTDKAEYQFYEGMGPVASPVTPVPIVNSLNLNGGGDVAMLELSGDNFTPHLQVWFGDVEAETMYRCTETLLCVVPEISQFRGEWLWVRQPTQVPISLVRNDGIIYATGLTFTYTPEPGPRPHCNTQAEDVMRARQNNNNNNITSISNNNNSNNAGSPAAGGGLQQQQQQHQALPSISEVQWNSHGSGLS

Target: 6x-His tagged Suppressor of Hairless (Su(H)) protein (Drosophila) (UniProt P28159)
Assay: pull-down; 6xHis-Su(H) bound to Ni-resin spin columns; bacterial lysates with 6xMyc-tagged proteins passed through; 50 mM sodium phosphate pH 8.0, 150 mM NaCl, 20 mM imidazole; eluted with 50 mM Tris pH 8.0, 10 mM EDTA; Western blot with anti-6xHis or anti-myc; 'partially purified recombinant bacterial proteins'; only the target purified

binding: no binding
B1: 6x-Myc tagged Achaete (Ac) (protein, UniProt P10083 1-201)
chain: MALGSENHSVFNDDEESSSAFNGPSVIRRNARERNRVKQVNNGFSQLRQHIPAAVIADLSNGRRGIGPGANKKLSKVSTLKMAVEYIRRLQKVLHENDQQKQKQLHLQQQHLHFQQQQQHQHLYAWHQELQLQSPTGSTSSCNSISSYCKPATSTIPGATPPNNFHTKLEASFEDYRNNSCSSGTEDEDILDYISLWQDDL
